# In publication PMC4821889:
# No constants are given. Whether binding was seen depends on the method and setting. Binding seen in cells or lysates may run through a third protein. Some binding calls cover weakened binding; strength is not graded here. For part of these data: Sequences can lack the tags named with a protein.
# T1: Lats2 (endogenous) (human (endogenous in MDA-MB-231)) (UniProt Q9NRM7)
# T1 sequence: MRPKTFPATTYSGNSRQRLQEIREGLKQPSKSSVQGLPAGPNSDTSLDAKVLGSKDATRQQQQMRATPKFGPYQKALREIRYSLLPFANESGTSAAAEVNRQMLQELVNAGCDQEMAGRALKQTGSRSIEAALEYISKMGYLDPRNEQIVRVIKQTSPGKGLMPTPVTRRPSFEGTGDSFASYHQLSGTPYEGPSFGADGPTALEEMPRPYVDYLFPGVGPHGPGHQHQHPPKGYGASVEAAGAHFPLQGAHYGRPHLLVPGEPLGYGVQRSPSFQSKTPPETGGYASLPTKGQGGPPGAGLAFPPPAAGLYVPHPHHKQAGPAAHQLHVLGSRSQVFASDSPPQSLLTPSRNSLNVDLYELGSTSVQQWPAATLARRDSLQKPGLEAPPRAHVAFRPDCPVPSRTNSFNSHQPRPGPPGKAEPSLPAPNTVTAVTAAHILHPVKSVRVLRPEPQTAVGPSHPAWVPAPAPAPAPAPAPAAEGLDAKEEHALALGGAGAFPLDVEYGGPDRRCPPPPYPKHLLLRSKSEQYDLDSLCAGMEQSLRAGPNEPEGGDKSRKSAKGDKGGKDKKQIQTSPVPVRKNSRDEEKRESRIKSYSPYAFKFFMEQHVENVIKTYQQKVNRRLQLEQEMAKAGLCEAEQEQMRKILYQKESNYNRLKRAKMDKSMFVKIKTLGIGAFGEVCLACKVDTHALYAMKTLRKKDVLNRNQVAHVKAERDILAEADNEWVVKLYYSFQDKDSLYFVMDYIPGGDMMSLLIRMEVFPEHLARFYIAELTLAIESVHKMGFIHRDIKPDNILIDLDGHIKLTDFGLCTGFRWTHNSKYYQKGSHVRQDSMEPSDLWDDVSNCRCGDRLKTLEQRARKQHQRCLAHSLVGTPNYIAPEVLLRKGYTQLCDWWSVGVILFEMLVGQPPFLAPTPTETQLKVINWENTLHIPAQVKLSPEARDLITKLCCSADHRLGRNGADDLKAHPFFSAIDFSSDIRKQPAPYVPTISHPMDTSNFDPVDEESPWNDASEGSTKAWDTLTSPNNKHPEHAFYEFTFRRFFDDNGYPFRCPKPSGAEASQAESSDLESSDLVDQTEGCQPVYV
# T2: Myc-Lats2 (UniProt Q9NRM7)
# T2 sequence: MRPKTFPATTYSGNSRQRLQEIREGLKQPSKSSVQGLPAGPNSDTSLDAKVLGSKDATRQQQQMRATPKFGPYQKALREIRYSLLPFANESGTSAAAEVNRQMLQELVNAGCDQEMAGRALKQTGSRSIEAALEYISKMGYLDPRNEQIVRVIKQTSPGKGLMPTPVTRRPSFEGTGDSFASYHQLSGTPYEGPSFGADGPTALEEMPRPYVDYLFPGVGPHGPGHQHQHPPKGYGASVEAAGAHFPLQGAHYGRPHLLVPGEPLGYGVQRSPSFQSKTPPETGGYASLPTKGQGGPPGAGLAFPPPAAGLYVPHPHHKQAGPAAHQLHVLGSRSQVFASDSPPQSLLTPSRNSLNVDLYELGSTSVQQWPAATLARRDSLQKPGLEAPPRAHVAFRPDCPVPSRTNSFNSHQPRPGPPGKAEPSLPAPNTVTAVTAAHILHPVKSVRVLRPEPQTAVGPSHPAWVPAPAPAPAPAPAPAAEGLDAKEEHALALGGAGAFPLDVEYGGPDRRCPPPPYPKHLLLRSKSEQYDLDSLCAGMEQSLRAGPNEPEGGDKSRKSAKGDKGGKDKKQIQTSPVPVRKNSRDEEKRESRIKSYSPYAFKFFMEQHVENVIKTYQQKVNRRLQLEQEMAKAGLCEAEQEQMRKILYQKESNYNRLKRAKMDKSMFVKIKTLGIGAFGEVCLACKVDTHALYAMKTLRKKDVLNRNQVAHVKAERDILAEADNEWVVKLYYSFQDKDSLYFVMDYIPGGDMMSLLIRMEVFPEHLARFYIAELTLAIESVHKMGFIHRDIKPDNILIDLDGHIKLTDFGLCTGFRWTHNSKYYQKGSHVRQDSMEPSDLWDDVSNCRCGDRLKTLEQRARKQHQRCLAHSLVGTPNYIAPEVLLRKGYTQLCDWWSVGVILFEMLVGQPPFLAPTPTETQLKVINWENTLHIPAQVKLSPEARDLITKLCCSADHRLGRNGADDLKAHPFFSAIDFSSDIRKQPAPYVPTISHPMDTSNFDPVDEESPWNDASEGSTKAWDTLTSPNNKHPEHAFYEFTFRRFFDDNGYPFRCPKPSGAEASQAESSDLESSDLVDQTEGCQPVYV
# T3: GST-Siah2 (UniProt O43255)
# T3 sequence: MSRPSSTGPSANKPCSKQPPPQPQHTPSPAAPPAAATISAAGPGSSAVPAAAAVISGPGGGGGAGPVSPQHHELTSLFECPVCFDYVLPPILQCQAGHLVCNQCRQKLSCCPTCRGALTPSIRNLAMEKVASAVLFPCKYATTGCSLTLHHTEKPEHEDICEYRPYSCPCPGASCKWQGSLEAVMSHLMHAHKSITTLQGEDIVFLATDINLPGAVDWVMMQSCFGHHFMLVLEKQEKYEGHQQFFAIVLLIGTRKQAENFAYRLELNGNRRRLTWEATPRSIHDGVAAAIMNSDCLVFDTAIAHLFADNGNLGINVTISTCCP
# Legend:
# [1] = target: T1, Lats2 (endogenous) (human (endogenous in MDA-MB-231)); assay: co-IP; endogenous proteins in MDA-MB-231 lysates; lysis buffer 150 mM NaCl, 20 mM Tris pH 7.4, 1% NP-40; antibody overnight at 4 °C, protein A/G-agarose; for Lats2-Siah2 cells treated with 5 μM MG132 and 5 ng/ml TGF-β for 12 h
# [2] = target: T2, Myc-Lats2; assay: co-IP; exogenously expressed tagged proteins (HEK293T stated for Fig. 4d, 4g, 5e); lysis buffer 150 mM NaCl, 20 mM Tris pH 7.4, 1% NP-40; protein A/G-agarose; for Lats2-Siah2^RM also with increasing Zyxin, Zyxin knock-down or Cytochalasin D
# [3] = target: T2, Myc-Lats2; assay: co-IP; double co-IP from HEK293T overexpressing Myc-Lats2, Flag-Siah2^RM and Zyxin-V5: anti-Flag IP, elution with Flag peptide, second IP with anti-Myc
# [4] = target: T3, GST-Siah2; assay: pull-down; GST-Siah2 on Glutathione Sepharose 4B, incubated with cell extracts at 4 °C overnight; washed five times with lysis buffer; western blotting; only the target purified
Binder,binding [1],binding [2],binding [3],binding [4]
"Zyxin (endogenous) (protein, UniProt Q15942 1-572) MAAPRPSPAISVSVSAPAFYAPQKKFGPVVAPKPKVNPFRPGDSEPPPAPGAQRAQMGRVGEIPPPPPEDFPLPPPPLAGDGDDAEGALGGAFPPPPPPIEESFPPAPLEEEIFPSPPPPPEEEGGPEAPIPPPPQPREKVSSIDLEIDSLSSLLDDMTKNDPFKARVSSGYVPPPVATPFSSKSSTKPAAGGTAPLPPWKSPSSSQPLPQVPAPAQSQTQFHVQPQPQPKPQVQLHVQSQTQPVSLANTQPRGPPASSPAPAPKFSPVTPKFTPVASKFSPGAPGGSGSQPNQKLGHPEALSAGTGSPQPPSFTYAQQREKPRVQEKQHPVPPPAQNQNQVRSPGAPGPLTLKEVEELEQLTQQLMQDMEHPQRQNVAVNELCGRCHQPLARAQPAVRALGQLFHIACFTCHQCAQQLQGQQFYSLEGAPYCEGCYTDTLEKCNTCGEPITDRMLRATGKAYHPHCFTCVVCARPLEGTSFIVDQANRPHCVPDYHKQYAPRCSVCSEPIMPEPGRDETVRVVALDKNFHMKCYKCEDCGKPLSIEADDNGCFPLDGHVLCRKCHTARAQT",binds,,,
"Siah2 (endogenous) (enzyme, UniProt O43255 1-324) MSRPSSTGPSANKPCSKQPPPQPQHTPSPAAPPAAATISAAGPGSSAVPAAAAVISGPGGGGGAGPVSPQHHELTSLFECPVCFDYVLPPILQCQAGHLVCNQCRQKLSCCPTCRGALTPSIRNLAMEKVASAVLFPCKYATTGCSLTLHHTEKPEHEDICEYRPYSCPCPGASCKWQGSLEAVMSHLMHAHKSITTLQGEDIVFLATDINLPGAVDWVMMQSCFGHHFMLVLEKQEKYEGHQQFFAIVLLIGTRKQAENFAYRLELNGNRRRLTWEATPRSIHDGVAAAIMNSDCLVFDTAIAHLFADNGNLGINVTISTCCP",binds,,,
"Zyxin-V5 (protein, UniProt Q15942 1-572) MAAPRPSPAISVSVSAPAFYAPQKKFGPVVAPKPKVNPFRPGDSEPPPAPGAQRAQMGRVGEIPPPPPEDFPLPPPPLAGDGDDAEGALGGAFPPPPPPIEESFPPAPLEEEIFPSPPPPPEEEGGPEAPIPPPPQPREKVSSIDLEIDSLSSLLDDMTKNDPFKARVSSGYVPPPVATPFSSKSSTKPAAGGTAPLPPWKSPSSSQPLPQVPAPAQSQTQFHVQPQPQPKPQVQLHVQSQTQPVSLANTQPRGPPASSPAPAPKFSPVTPKFTPVASKFSPGAPGGSGSQPNQKLGHPEALSAGTGSPQPPSFTYAQQREKPRVQEKQHPVPPPAQNQNQVRSPGAPGPLTLKEVEELEQLTQQLMQDMEHPQRQNVAVNELCGRCHQPLARAQPAVRALGQLFHIACFTCHQCAQQLQGQQFYSLEGAPYCEGCYTDTLEKCNTCGEPITDRMLRATGKAYHPHCFTCVVCARPLEGTSFIVDQANRPHCVPDYHKQYAPRCSVCSEPIMPEPGRDETVRVVALDKNFHMKCYKCEDCGKPLSIEADDNGCFPLDGHVLCRKCHTARAQT",,binds,binds,
"Zyxin (379-572) (domain or fragment, UniProt Q15942 379-572) AVNELCGRCHQPLARAQPAVRALGQLFHIACFTCHQCAQQLQGQQFYSLEGAPYCEGCYTDTLEKCNTCGEPITDRMLRATGKAYHPHCFTCVVCARPLEGTSFIVDQANRPHCVPDYHKQYAPRCSVCSEPIMPEPGRDETVRVVALDKNFHMKCYKCEDCGKPLSIEADDNGCFPLDGHVLCRKCHTARAQT",,binds,,binds
